The other results are listed elsewhere or left out. Most values lie at the level of the controls, where differences are scatter.

Sequences of proteins named here, by UniProt entry; tags and fusion partners are left off. A change or cut given only in a name is not applied to a line headed by its entry.
UniProt Q99567: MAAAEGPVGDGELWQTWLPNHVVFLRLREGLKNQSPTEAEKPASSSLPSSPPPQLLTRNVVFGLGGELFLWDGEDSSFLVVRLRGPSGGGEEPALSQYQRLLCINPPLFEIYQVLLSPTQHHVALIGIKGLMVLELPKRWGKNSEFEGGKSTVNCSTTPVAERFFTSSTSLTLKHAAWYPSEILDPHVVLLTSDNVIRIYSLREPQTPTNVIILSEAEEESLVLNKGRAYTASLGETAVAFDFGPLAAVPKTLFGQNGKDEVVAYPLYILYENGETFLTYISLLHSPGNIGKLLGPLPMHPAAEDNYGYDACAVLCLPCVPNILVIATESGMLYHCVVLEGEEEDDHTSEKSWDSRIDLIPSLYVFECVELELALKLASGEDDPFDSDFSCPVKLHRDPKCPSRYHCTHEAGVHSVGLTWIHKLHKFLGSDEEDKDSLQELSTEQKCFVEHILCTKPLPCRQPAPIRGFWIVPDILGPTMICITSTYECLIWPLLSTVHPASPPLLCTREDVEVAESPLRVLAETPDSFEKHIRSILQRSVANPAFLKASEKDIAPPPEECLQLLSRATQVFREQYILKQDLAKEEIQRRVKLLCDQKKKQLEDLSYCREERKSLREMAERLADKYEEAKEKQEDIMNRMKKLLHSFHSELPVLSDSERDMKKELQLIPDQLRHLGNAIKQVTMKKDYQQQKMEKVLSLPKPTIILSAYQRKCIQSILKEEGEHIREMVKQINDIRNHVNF
UniProt Q99961: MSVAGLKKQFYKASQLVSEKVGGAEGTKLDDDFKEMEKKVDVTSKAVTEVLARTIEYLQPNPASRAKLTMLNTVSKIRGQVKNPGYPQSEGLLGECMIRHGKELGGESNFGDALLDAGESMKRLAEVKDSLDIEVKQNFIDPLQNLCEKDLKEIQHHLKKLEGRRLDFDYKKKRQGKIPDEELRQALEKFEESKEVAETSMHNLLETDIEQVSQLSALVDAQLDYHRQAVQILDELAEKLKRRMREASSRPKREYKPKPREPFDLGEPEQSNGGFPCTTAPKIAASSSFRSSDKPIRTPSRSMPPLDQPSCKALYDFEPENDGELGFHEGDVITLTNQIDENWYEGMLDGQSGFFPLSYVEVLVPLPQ
UniProt Q9BTE6: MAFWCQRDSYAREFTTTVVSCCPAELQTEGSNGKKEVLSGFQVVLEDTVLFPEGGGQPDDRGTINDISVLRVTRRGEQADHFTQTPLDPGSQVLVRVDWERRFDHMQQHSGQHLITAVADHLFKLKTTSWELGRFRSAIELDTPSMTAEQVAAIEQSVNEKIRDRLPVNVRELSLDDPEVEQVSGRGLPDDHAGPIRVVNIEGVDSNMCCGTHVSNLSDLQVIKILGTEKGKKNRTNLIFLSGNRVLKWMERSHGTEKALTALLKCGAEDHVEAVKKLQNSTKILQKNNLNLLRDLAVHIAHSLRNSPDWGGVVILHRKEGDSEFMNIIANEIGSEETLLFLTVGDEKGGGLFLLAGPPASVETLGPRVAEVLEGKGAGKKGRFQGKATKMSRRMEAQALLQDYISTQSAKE
UniProt Q9BUE6: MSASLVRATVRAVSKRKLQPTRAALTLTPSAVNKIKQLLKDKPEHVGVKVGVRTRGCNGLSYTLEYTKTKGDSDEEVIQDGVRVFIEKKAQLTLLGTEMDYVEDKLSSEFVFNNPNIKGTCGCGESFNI
UniProt Q9BT17: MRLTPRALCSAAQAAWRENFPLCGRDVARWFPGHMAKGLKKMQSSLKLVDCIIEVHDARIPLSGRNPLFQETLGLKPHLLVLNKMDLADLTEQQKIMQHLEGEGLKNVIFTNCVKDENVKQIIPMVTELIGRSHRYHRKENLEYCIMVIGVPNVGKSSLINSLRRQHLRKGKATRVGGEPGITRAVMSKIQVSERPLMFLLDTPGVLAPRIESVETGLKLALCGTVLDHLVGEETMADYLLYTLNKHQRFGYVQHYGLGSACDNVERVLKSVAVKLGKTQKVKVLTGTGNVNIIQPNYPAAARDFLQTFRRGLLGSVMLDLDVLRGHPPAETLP
UniProt Q9BVR0: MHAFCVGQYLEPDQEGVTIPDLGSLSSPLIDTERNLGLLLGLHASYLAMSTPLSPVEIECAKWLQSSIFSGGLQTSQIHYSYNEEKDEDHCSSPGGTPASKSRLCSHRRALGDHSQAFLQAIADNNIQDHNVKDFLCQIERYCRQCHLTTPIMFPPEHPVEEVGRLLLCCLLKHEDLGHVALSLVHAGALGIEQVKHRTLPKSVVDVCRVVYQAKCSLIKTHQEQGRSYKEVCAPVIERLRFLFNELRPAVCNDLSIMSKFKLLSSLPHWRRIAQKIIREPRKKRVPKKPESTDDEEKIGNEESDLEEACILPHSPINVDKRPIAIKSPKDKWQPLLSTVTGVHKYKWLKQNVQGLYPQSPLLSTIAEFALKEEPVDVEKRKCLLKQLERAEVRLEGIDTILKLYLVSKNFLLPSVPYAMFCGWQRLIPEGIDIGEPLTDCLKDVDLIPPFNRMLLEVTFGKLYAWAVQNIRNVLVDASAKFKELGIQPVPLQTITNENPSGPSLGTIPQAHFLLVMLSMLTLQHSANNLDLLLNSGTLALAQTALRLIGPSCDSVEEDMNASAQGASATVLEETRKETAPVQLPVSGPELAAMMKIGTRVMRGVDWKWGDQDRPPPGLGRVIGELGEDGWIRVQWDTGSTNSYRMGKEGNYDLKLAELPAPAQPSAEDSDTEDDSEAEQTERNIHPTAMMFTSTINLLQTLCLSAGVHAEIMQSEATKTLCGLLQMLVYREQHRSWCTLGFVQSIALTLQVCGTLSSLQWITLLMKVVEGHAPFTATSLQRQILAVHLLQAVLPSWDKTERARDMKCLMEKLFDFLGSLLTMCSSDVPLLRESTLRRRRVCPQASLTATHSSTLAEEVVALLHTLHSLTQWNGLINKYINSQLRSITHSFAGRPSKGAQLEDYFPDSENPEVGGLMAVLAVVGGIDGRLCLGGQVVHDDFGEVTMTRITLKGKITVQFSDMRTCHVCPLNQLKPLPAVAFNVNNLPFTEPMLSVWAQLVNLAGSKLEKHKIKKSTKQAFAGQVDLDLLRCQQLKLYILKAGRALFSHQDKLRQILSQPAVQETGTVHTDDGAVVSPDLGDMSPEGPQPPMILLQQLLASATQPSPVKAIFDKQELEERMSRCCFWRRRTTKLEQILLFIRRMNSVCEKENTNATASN
UniProt Q9BPZ7, whole entry: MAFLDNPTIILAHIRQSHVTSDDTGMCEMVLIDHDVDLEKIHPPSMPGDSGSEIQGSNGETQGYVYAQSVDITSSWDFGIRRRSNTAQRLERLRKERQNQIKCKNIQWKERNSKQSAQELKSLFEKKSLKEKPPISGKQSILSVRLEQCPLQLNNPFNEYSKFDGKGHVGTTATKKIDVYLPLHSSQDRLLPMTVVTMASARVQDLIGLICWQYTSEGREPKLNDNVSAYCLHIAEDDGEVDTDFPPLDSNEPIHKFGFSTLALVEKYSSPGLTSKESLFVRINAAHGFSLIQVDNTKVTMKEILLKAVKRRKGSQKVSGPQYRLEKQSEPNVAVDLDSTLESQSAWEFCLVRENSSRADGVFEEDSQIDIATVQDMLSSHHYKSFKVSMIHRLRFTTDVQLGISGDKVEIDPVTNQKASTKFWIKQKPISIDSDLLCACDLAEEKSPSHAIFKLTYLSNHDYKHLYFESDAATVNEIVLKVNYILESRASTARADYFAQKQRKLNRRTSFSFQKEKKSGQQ
UniProt Q9BT25: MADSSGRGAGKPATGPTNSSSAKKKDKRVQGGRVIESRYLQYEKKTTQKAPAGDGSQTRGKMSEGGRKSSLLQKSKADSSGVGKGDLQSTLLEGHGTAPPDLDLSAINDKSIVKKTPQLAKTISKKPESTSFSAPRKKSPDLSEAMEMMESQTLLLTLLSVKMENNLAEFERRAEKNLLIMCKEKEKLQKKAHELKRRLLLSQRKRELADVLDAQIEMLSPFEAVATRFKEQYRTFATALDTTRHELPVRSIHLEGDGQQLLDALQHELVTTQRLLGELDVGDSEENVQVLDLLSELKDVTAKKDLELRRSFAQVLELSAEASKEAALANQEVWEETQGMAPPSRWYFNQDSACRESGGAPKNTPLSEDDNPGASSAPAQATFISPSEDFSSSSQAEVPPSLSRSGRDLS

The record followed here is the supplement of paper PMC12819154, “High-throughput peptide-centric local stability assay extends protein–ligand identification to membrane proteins, tissues and bacteria” (Nature Structural & Molecular Biology, 2025).

Compound in this assay: CN[C@@H]1C[C@H]2O[C@@](C)([C@@H]1OC)n1c3ccccc3c3c4c(c5c6ccccc6n2c5c31)C(=O)NC4 [staurosporine]
As to the kind of experiment: log2 fold change of tryptic peptide abundance, ligand vs vehicle (limited proteolysis) (log2 ratio); higher = more trypsin-susceptible (destabilized). The settings on record: ligand concentration: 20 uM; sample: K562 cleared lysate; digestion: 4 min, 22 C (HT-PELSA RT4min, Orbitrap Astral).
“NUP88 (peptide sequence: CFVEHILCTKPLPCR, peptide start residue: 447) (UniProt Q99567)”: the log2 fold change is -0.289.

Regarding “SH3GL1 (peptide sequence: DSLDIEVK, peptide start residue: 129) (UniProt Q99961)”, the log2 fold change was -0.0871.

Consider “AARSD1 (peptide sequence: EFTTTVVSCCPAELQTEGSNGKK, peptide start residue: 13) (UniProt Q9BTE6)”, for which the log2 fold change is 0.37.

For the target “ISCA1 (peptide sequence: AALTLTPSAVNK, peptide start residue: 23) (UniProt Q9BUE6)”, the log2 fold change amounted to 0.332.

As to “MTG1 (peptide sequence: LVDCIIEVHDAR, peptide start residue: 48) (UniProt Q9BT17)”, the log2 fold change was -0.293.

For “UniProt Q9BVR0 (peptide sequence: EVCAPVIER, peptide start residue: 1504)”, the log2 fold change was 0.321.

Regarding “MAPKAP1 (peptide sequence: INAAHGFSLIQVDNTK, peptide start residue: 283) (UniProt Q9BPZ7)”, the log2 fold change is -0.244.

“UniProt Q9BT25 (peptide sequence: WYFNQDSACRESGGAPK, peptide start residue: 346)”: the log2 fold change is -0.397.
